The text below walks through data of paper PMC3713262.

Sequences of proteins named here, by UniProt entry; tags and fusion partners are left off. A change or cut given only in a name is not applied to a line headed by its entry.
UniProt P40692: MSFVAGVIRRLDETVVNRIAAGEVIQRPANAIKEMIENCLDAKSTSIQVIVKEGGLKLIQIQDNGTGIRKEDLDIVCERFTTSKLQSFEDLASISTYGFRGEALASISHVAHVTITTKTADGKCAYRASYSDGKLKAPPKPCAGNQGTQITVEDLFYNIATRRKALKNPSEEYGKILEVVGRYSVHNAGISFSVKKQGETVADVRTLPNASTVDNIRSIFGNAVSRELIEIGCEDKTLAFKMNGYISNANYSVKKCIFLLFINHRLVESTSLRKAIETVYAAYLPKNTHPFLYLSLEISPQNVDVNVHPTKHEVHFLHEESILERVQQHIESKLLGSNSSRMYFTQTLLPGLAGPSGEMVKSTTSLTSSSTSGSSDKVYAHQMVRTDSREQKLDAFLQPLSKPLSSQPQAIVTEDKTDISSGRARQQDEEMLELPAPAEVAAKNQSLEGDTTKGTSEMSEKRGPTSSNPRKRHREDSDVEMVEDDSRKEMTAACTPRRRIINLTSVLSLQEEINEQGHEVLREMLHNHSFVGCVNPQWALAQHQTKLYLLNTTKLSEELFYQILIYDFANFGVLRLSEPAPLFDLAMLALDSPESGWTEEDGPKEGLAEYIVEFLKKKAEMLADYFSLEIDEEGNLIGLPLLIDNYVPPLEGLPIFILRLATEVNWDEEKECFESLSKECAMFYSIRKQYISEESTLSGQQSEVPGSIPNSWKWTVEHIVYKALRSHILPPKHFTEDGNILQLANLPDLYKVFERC

Results are given in words; binding and its absence hold for the method and conditions named. Binding seen in cells or lysates may run through a third protein. Some binding calls cover weakened binding; strength is not graded here.

The target of assay [1] is T1, FANCJ protein (human (endogenous in MKN45)) (UniProt Q9BX63).
T1 sequence: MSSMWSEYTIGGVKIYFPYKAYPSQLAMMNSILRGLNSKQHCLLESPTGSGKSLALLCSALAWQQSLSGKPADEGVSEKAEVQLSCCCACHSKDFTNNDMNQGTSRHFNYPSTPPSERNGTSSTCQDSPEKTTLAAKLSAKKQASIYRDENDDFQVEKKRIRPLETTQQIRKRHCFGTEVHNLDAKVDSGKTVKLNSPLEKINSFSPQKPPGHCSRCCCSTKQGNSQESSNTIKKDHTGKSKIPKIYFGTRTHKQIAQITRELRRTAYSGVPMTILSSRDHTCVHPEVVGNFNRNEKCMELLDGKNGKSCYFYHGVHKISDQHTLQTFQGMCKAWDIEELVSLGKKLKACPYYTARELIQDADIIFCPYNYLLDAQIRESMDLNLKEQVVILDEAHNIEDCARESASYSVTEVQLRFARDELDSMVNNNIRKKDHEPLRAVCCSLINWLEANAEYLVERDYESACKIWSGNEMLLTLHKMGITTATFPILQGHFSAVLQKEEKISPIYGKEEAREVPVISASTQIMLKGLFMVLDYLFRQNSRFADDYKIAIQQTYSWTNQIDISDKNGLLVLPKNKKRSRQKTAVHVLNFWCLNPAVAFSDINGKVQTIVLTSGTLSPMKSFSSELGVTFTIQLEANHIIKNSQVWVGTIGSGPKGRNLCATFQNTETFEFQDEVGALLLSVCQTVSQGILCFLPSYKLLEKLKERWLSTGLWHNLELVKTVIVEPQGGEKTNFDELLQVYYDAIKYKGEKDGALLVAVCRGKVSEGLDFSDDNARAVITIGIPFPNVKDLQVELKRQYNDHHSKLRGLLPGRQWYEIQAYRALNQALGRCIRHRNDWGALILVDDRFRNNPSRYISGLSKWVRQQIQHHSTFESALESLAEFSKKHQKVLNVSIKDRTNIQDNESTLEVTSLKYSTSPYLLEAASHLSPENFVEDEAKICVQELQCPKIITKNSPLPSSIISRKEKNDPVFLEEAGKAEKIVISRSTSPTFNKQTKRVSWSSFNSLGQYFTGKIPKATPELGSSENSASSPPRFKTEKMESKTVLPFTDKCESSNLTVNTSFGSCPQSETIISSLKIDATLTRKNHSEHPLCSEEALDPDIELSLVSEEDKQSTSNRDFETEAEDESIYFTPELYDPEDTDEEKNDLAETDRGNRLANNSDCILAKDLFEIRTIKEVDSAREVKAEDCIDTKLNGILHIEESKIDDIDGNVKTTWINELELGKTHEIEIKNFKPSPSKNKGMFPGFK
Kind of assay: co-IP; MKN45 cells treated with 1 μM oxaliplatin for 24 h (10 μM 5FU plus 1 μM oxaliplatin also run); lysate in CelLytic M, anti-FANCJ antibody 2 h at 4 °C, Protein A magnetic beads; western blot for MLH1 and PMS2.

Assay [2] has as its target T1, FANCJ protein (human (endogenous in MKN45)). Kind of assay: co-IP; MKN45 cells treated with 10 μM 5FU for 24 h; lysate in CelLytic M, anti-FANCJ antibody 2 h at 4 °C, Protein A magnetic beads; western blot for MLH1 and PMS2. A general note: A western blot detects proteins with antibodies after separation by electrophoresis.

In the case of “mismatch repair protein complex MLH1-PMS2 (MutLα) (from UniProt P40692 1-756; P54278 1-862)”, the binding entry in assay [1] is reported as “binds”; in assay [2], “binds weakly”.
